Test results as given in the supplement of paper PMC6078165.
Values are relative to the signal before dosing, not to a vehicle control; the signal also falls without drug.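 Labels refer to human fibroblasts, largely primary: uterine (C12385, HUF), lung (H6013), bone (Hs27A), adrenal (HADF), skin (WS1), plus mammary HMF and breast cancer-associated Hs343T. Cancer lines are basal-like or mesenchymal-like triple-negative breast cancer. The paper counts as hits responses shifting over 3x the replicate standard deviation. The tissue of the other fibroblasts is not given here.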

Test system: MDAMB468
Test: relative JC-1 red fluorescence (viability) vs pre-drug, coculture with fibroblast (fraction); higher = more viable cancer cells
Details: 1 µM
Description: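 JC-1 labelled TNBC cells cocultured 1:1 (1,500 cells each) with CellTrace Violet stained primary or stromal fibroblasts in 384-well plates in FluoroBrite medium, treated with one of 42 anticancer drugs at 0.1, 1, 10 or 100 uM. JC-1 red fluorescence (mitochondrial integrity in cancer cells only) was read by plate reader every 8 h for 72 h. Values are normalised to each well's pre-drug value. The stock of one drug was tenfold lower, so its dose labels may be too high.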

CS(=O)(=O)CCNCc1ccc(-c2ccc3ncnc(Nc4ccc(OCc5cccc(F)c5)c(Cl)c4)c3c2)o1 [Lapatinib]
relative JC-1 red fluorescence
Details	8 h	16 h	24 h	32 h	40 h	48 h	56 h	64 h	72 h
coculture fibroblast: C12385	0.917	0.884	0.858	0.811	0.771	0.746	0.707	0.678	0.6581
coculture fibroblast: H6013	0.899	0.89987	0.857	0.848	0.83	0.836	0.796	0.783	0.726
coculture fibroblast: H6019	0.847	0.825	0.789	0.739	0.693	0.665	0.6218	0.5898	0.569
coculture fibroblast: H6076	0.934	0.9431	0.8984	0.9016	0.83105	0.82243	0.8087	0.782	0.8128
coculture fibroblast: H6231	0.853	0.931	0.892	0.8861	0.828	0.818	0.778	0.759	0.735
coculture fibroblast: HADF	0.902	0.927	0.877	0.87336	0.833	0.824	0.788	0.783	0.747
coculture fibroblast: HCFa	0.9207	0.9218	0.88076	0.8501	0.803	0.789	0.747	0.704	0.646
coculture fibroblast: HCPF	0.876	0.972	0.896	0.873	0.8113	0.772	0.717	0.709	0.697
coculture fibroblast: HHSteC	0.9306	0.935	0.909	0.885	0.859	0.846	0.7822	0.7458	0.6955
coculture fibroblast: HMF	0.861	0.956	0.907	0.8934	0.828	0.82	0.771	0.75	0.729
coculture fibroblast: HPFa	0.877	0.964	0.941	0.897	0.864	0.858	0.788	0.759	0.676
coculture fibroblast: HUF	0.92373	0.8674	0.828	0.77009	0.723	0.7014	0.6606	0.635	0.609
coculture fibroblast: Hs5	0.915	0.954	0.9164	0.882	0.8112	0.7917	0.749	0.7148	0.72158
coculture fibroblast: Hs27A	0.8932	0.91966	0.852	0.862	0.8103	0.7991	0.7686	0.74086	0.713
coculture fibroblast: Hs343T	0.904	0.934	0.954	0.933	0.874	0.87	0.839	0.83	0.815
coculture fibroblast: WS1	0.87	0.8446	0.8125	0.767	0.742	0.714	0.681	0.658	0.643
